These are yes or no findings as the source states them, for the method shown. Binding seen in cells or lysates may run through a third protein. Binding can be weak; no strength is given.
Biological target: N-terminally V5-tagged wt^TEAD4 (full length) (human) (UniProt Q15561)
Assay: co-IP; V5-TEAD4 and (FLAG)3-VGLL2 co-transfected into HEK293FT YAP/TAZ double knockout cells; V5 immunoprecipitation, anti-FLAG Western blot; similar results in wild-type HEK293FT cells

Protein sequences, listed by entry. Tags and fused reporters are not part of them.
UniProt Q15561: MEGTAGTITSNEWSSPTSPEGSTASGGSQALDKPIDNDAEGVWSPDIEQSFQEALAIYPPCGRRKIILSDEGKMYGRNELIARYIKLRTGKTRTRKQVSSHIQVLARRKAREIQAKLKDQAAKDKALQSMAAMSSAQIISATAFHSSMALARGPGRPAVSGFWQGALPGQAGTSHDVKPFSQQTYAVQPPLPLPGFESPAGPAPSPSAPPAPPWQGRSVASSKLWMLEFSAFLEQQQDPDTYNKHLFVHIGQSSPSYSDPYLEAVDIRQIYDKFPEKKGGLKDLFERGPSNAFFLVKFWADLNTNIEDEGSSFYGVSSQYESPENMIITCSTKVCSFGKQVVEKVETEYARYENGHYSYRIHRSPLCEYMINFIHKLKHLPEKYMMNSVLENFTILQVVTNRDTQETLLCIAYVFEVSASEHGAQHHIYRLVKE

binding: binds
Substance: (FLAG)3-delΩ^VGLL2 (full length with the Ω-loop deleted) (from UniProt Q8N8G2-1)

From publication PMC7566471, “A new perspective on the interaction between the Vg/VGLL1-3 proteins and the TEAD transcription factors” (Scientific Reports, 2020)
